This series relates to ventricular myocytes from chicken embryos. The series is described as follows: extracellular MEA field potential (FPdur) measurement on spontaneously beating heart cells. In kind it is cell-based. The method, then:
The heart muscle cells were obtained by trypsin digestion of the isolated ventricle of chicken embryos (10-12 days after fertilization). The heart was freed of blood vessels and atria. The cells were cultured in MEM medium supplemented with 10% fetal calf serum (FCS). One to two days before the measurement, the medium was replaced by standard Tyrode solution.
The standard Tyrode solution was then replaced by a Tyrode solution with 5 μM of a test substance and the change in FPdur was determined. Thereafter, the concentration of the test substance was increased in logarithmic steps. A measurement was now taken every 10 minutes.
In measurements with quinidine, 0.5% DMSO was added to the cell Tyrode since quinidine is not water-soluble. The control experiment was also carried out with DMSO here.
In these qualitative evaluations, i.e. comparison of data from the respective control experiment and the data derived from addition of the QT-modifying substance, possible changes in the heart rate were taken into account.
For the normalized case, the FPdur value was divided by the square root of the time span (in seconds) between two action potentials.

Regarding `Cc1cccc(CCN2CCC(C(=O)c3ccc(NS(C)(=O)=O)cc3)CC2)n1.Cl.Cl` [E4031], where the note is “at higher concentrations”, the “spontaneous contractions of the cells” value is recorded as “no longer have any spontaneous contractions”. Moreover, the “effect on the QT interval” value (summary of substances tested by the inventors) is reported as “prolongating effect”.
